Data taken from patent US8278473B2, “Alpha, beta-unsaturated imidate compound and pesticidal composition containing the same” (Sumitomo Chemical Company, Limited, priority 2007, dated 2012).
Some entries share one result that the patent states for a list of compounds. For some assays here: At least one read-out could not be matched to a standard name with certainty. Some compounds share one range, which may span the group rather than tell each member.

Legend:
Assay type in all cases: in vivo
Tetranychus urticae = experiment: Test Example 8: Tetranychus urticae, spray on bean plant; conditions: 500 ppm test solution, 20 mL sprayed on bean plant; after 8 days
Adoxophyes orana = experiment: Test Example 2: Adoxophyes orana, artificial diet/filter paper test; conditions: 500 ppm test solution, 1 mL; first-instar larvae; after 7 days
Plutella xylostella = experiment: Test Example 9: Plutella xylostella, spray on cabbage; conditions: 500 ppm test solution, 20 mL sprayed on cabbage; second-instar larvae; 25° C.; after 5 days
Culex pipiens pallens = experiment: Test Example 7: Culex pipiens pallens larvae in treated water; conditions: active ingredient concentration 3.5 ppm in water; last-instar larvae; after 1 day
Spodoptera litura = experiment: Test Example 1: Spodoptera litura, artificial diet/filter paper test; conditions: 500 ppm test solution, 2 mL; fourth-instar larvae; after 6 days
Nilaparvata lugens = experiment: Test Example 4: Nilaparvata lugens, spray on rice plant; conditions: 500 ppm test solution, 20 mL/pot sprayed on rice; first-instar larvae; after 6 days
Blattalla germanica = experiment: Test Example 6: Blattalla germanica, filter paper with sucrose bait; conditions: 500 ppm test solution, 0.7 ml on filter paper; male imagoes; after 6 days
Aphis gossypii = experiment: Test Example 3: Aphis gossypii, spray on cucumber leaves; conditions: 500 ppm test solution, 20 mL sprayed on cucumber; imagoes and larvae; after 6 days
Musca domestica = experiment: Test Example 5: Musca domestica, filter paper with sucrose bait; conditions: 500 ppm test solution, 0.7 ml on filter paper; female imagoes; after 24 hours

| Compound | index in terms of the surviving number (female imagoes) (Tetranychus urticae) | index in terms of death rate (Adoxophyes orana) | index in terms of death rate (Plutella xylostella) | index in terms of death rate (Culex pipiens pallens) | index in terms of death rate (Spodoptera litura) | index in terms of survival rate (Nilaparvata lugens) | index in terms of death rate (Blattalla germanica) | index in terms of survival rate (Aphis gossypii) | index in terms of death rate (Musca domestica) |
| --- | --- | --- | --- | --- | --- | --- | --- | --- | --- |
| CC(=COc1ccccc1C)C(=Nc1ccccc1)Oc1ccccc1C [Compound 174, 2-methylphenyl 2-methyl-3-(2-methylphenyloxy)-N-phenyl-2-propenimidate] | 3 (index 3: 4 to 10) | 3 (3: 80 to 99%) | 3 (3: 80 to 99%) | 4 (4: 91 to 100%) | 3 (3: 80 to 99%) | 3 (3: 1 to 10%) |  |  |  |
| CC(=COc1ccc(Cl)cc1)C(=Nc1ccccc1)Oc1ccccc1 [Compound 231, phenyl 3-(4-chlorophenyloxy)-2-methyl-N-phenyl-2-propenimidate] | 3 (index 3: 4 to 10) | 3 (3: 80 to 99%) | 3 (3: 80 to 99%) | 4 (4: 91 to 100%) | 3 (3: 80 to 99%) |  | 4 (4: 100%) | 3 (3: 1 to 10%) | 3 (3: 70 to 99%) |
| COc1ccccc1OC=C(C)C(=Nc1ccc(C)cc1)Oc1cc(C)cc(C)c1 [Compound 244, 3,5-dimethylphenyl 3-(2-methoxyphenyloxy)-2-methyl-N-(4-methylphenyl)-2-propenimidate] | 3 (index 3: 4 to 10) | 3 (3: 80 to 99%) | 3 (3: 80 to 99%) | 4 (4: 91 to 100%) | 3 (3: 80 to 99%) |  | 4 (4: 100%) | 3 (3: 1 to 10%) | 3 (3: 70 to 99%) |
| COc1ccc(N=C(Oc2cc(C)cc(C)c2)C(C)=COc2ccccc2OC)cc1 [Compound 250, 3,5-dimethylphenyl N-(4-methoxyphenyl)-3-(2-methoxyphenyloxy)-2-methyl-2-propenimidate] | 3 (index 3: 4 to 10) | 3 (3: 80 to 99%) | 3 (3: 80 to 99%) | 4 (4: 91 to 100%) | 3 (3: 80 to 99%) |  | 4 (4: 100%) | 3 (3: 1 to 10%) | 3 (3: 70 to 99%) |
| CCOc1cccc(OC(=Nc2ccc(C)c(C)c2)C(C)=COc2ccccc2OC)c1 [Compound 255, 3-ethoxyphenyl N-(3,4-dimethylphenyl)-3-(2-methoxyphenyloxy)-2-methyl-2-propenimidate] | 3 (index 3: 4 to 10) | 3 (3: 80 to 99%) | 3 (3: 80 to 99%) | 4 (4: 91 to 100%) | 3 (3: 80 to 99%) |  |  | 3 (3: 1 to 10%) | 3 (3: 70 to 99%) |
| COc1ccc(OC=C(C)C(=Nc2ccc(C)cc2)Oc2ccc(C)cc2)cc1 [Compound 271, 4-methylphenyl 3-(4-methoxyphenyloxy)-2-methyl-N-(4-methylphenyl)-2-propenimidate] | 3 (index 3: 4 to 10) | 3 (3: 80 to 99%) | 3 (3: 80 to 99%) | 4 (4: 91 to 100%) | 3 (3: 80 to 99%) |  | 4 (4: 100%) | 3 (3: 1 to 10%) | 3 (3: 70 to 99%) |
| CC/C(=C\Oc1ccccc1)C(=Nc1ccc(C)cc1)Oc1cccc(C)c1 [Compound 303, 3-methyl phenyl 2-ethyl-N-(4-methylphenyl)-3-phenoxy-2-propenimidate] |  | 3 (3: 80 to 99%) | 3 (3: 80 to 99%) | 4 (4: 91 to 100%) | 3 (3: 80 to 99%) | 3 (3: 1 to 10%) | 4 (4: 100%) | 3 (3: 1 to 10%) | 3 (3: 70 to 99%) |
| CCC(=COc1cccc(C)c1)C(=Nc1ccccc1)Oc1ccccc1 [Compound 304, phenyl 2-ethyl-3-(3-methylphenyloxy)-N-phenyl-2-propenimidate] |  | 3 (3: 80 to 99%) | 3 (3: 80 to 99%) | 4 (4: 91 to 100%) | 3 (3: 80 to 99%) | 3 (3: 1 to 10%) | 4 (4: 100%) | 3 (3: 1 to 10%) | 3 (3: 70 to 99%) |
| CCC(=COc1cccc(C)c1)C(=Nc1ccccc1)Oc1cccc(C)c1 [Compound 305, 3-methylphenyl 2-ethyl-3-(3-methylphenyloxy)-N-phenyl-2-propenimidate] |  | 3 (3: 80 to 99%) | 3 (3: 80 to 99%) | 4 (4: 91 to 100%) | 3 (3: 80 to 99%) | 3 (3: 1 to 10%) | 4 (4: 100%) | 3 (3: 1 to 10%) | 3 (3: 70 to 99%) |
| CCC(=COc1cccc(C)c1)C(=Nc1ccc(C)cc1)Oc1ccccc1 [Compound 307, phenyl 2-ethyl-N-(4-methylphenyl)-3-(3-methylphenyloxy)-2-propenimidate] |  | 3 (3: 80 to 99%) | 3 (3: 80 to 99%) | 4 (4: 91 to 100%) | 3 (3: 80 to 99%) | 3 (3: 1 to 10%) | 4 (4: 100%) | 3 (3: 1 to 10%) | 3 (3: 70 to 99%) |
| CCC(=COc1cccc(C)c1)C(=Nc1ccc(C)cc1)Oc1cccc(C)c1 [Compound 308, 3-methylphenyl 2-ethyl-N-(4-methylphenyl)-3-(3-methylphenyloxy)-2-propenimidate] |  | 3 (3: 80 to 99%) | 3 (3: 80 to 99%) | 4 (4: 91 to 100%) | 3 (3: 80 to 99%) | 3 (3: 1 to 10%) | 4 (4: 100%) | 3 (3: 1 to 10%) | 3 (3: 70 to 99%) |
| CCC(=COc1ccc(C)cc1)C(=Nc1ccccc1)Oc1ccccc1 [Compound 309, phenyl 2-ethyl-3-(4-methylphenyloxy)-N-phenyl-2-propenimidate] |  | 3 (3: 80 to 99%) | 3 (3: 80 to 99%) | 4 (4: 91 to 100%) | 3 (3: 80 to 99%) | 3 (3: 1 to 10%) | 4 (4: 100%) | 3 (3: 1 to 10%) | 3 (3: 70 to 99%) |
| CCC(=COc1ccc(C)cc1)C(=Nc1ccc(C)cc1)Oc1ccccc1 [Compound 311, phenyl 2-ethyl-N-(4-methylphenyl)-3-(4-methylphenyloxy)-2-propenimidate] |  | 3 (3: 80 to 99%) | 3 (3: 80 to 99%) | 4 (4: 91 to 100%) | 3 (3: 80 to 99%) | 3 (3: 1 to 10%) | 4 (4: 100%) | 3 (3: 1 to 10%) | 3 (3: 70 to 99%) |
| CCC(=COc1ccccc1OC)C(=Nc1ccc(C)cc1)Oc1ccccc1 [Compound 315, phenyl 2-ethyl-3-(2-methoxyphenyloxy)-N-(4-methylphenyl)-2-propenimidate] |  | 3 (3: 80 to 99%) | 3 (3: 80 to 99%) | 4 (4: 91 to 100%) | 3 (3: 80 to 99%) | 3 (3: 1 to 10%) | 4 (4: 100%) | 3 (3: 1 to 10%) | 3 (3: 70 to 99%) |
| CCC(=COc1ccc(OC)cc1)C(=Nc1ccc(C)cc1)Oc1ccccc1 [Compound 319, phenyl 2-ethyl-3-(4-methoxyphenyloxy)-N-(4-methylphenyl)-2-propenimidate] |  | 3 (3: 80 to 99%) | 3 (3: 80 to 99%) | 4 (4: 91 to 100%) | 3 (3: 80 to 99%) | 3 (3: 1 to 10%) | 4 (4: 100%) | 3 (3: 1 to 10%) | 3 (3: 70 to 99%) |
| CCCC(=COc1ccccc1)C(=Nc1ccccc1)Oc1ccccc1 [Compound 322, phenyl 3-phenoxy-N-phenyl-2-n-propyl-2-propenimidate] |  | 3 (3: 80 to 99%) | 3 (3: 80 to 99%) | 4 (4: 91 to 100%) | 3 (3: 80 to 99%) | 3 (3: 1 to 10%) | 4 (4: 100%) | 3 (3: 1 to 10%) | 3 (3: 70 to 99%) |
